This test has as its system AKR/Lw mice, AKR lymphoma ip, median survival T/C. As to the kind of experiment: NCI In Vivo Anticancer Drug Screen. Data for tumor model Lymphoma AKR (Transplanted) (intraperitoneal) in AKR/Lw mice. The settings on record: T/C endpoint: median survival time, higher T/C = longer survival. How it is done:
The antitumor activity of compounds was measured in mice bearing transplantable tumors. Survival or tumor size were measured and the results are expressed as the measurement made in the treated group (T) divided by the measurement made in the vehicle treated control group (C). The tumor model used in this assay is Lymphoma AKR (Transplanted) (intraperitoneal) in AKR/Lw mice

[1] abbreviates: dose: 100.0 mg/kg/injection, schedule: Q01DX001 (ip), vehicle: saline.
The mark [2] stands for this setting: dose: 200.0 mg/kg/injection, schedule: Q01DX001 (ip), vehicle: saline.
Where [3] appears, read: dose: 400.0 mg/kg/injection, schedule: Q01DX001 (ip), vehicle: saline.
[4] abbreviates: dose: 25.0 mg/kg/injection, schedule: Q01DX009 (ip), vehicle: saline.
The mark [5] stands for this setting: dose: 50.0 mg/kg/injection, schedule: Q01DX009 (ip), vehicle: saline.
Setting [6] is: dose: 100.0 mg/kg/injection, schedule: Q04DX003 (ip), vehicle: saline.
The mark [7] stands for this setting: dose: 200.0 mg/kg/injection, schedule: Q04DX003 (ip), vehicle: saline.
Where [8] appears, read: dose: 100.0 mg/kg/injection, schedule: Q01DX001 (ip), vehicle: saline with Tween-80.
Where [9] appears, read: dose: 400.0 mg/kg/injection, schedule: Q01DX009 (ip), vehicle: saline.
The mark [10] stands for this setting: dose: 600.0 mg/kg/injection, schedule: Q04DX003 (ip), vehicle: saline.

The text below walks through data of PubChem BioAssay AID190 (DTP/NCI, 2004).

The list does not hold the whole screen: it is rich in T/C values a quarter to a half above the control, in often repeated tests (any T/C) and in doses without a T/C. Other doses and runs of a compound stand elsewhere. T/C gives the treated animals as a percentage of the vehicle group. Some doses have a count of surviving animals in place of a T/C: the source holds a T/C of zero for them, seemingly a mark for toxic or unscored doses. Some survivor counts are full or nearly so, which does not show that the dose was tolerated: survival well below the control is almost never listed, so the zero probably covers shortened survival too. Survivors were counted at the toxicity check, usually on the fifth day, unless a day is given; later deaths do not show. Schedules are NCI's codes, read here as Q, the interval in days (D) or hours (H), X, the number of doses. Where survival is the endpoint, this PubChem deposit counts one and a half times the control or more as active, and values a quarter to a half above the control carry no call in these data; other NCI protocols may use other cut-offs. Some T/C values are followed by the survivors on the day toxicity was checked, most often the fifth; without a count, all were alive then. Some entries hold several experiments; their values stand side by side, smallest first. Additions like (4×) stand for listed records that agree. Numbered stars: 1 amine (or outer) side, 2 acyl side, 3 side chain; on linkers, the order of the positions; unused ones are H or OH. Bridge positions count the residues as written; N and C are the ends. Square brackets hold non-standard residues; d marks the D form. Peptide text beside a SMILES is read from it. I, II: the chains in the order shown. Actinocin(9to1) = Cc1c2oc3c(C)ccc(C(=O)[*:1])c3nc-2c(C(=O)[*:2])c(N)c1=O; aThr = C[C@H](O)[C@H](N)C(=O)O; NMeV = CN[C@H](C(=O)O)C(C)C; Sar = CNCC(=O)O

For the compound `C[C@]12CCC(=O)C=C1CC[C@@H]1[C@@H]2[C@@H](O)C[C@@]2(C)[C@H]1CC[C@]2(O)C(=O)CO`, the survivor count (dose: 100.0 mg/kg/injection, schedule: Q01DX005 (sc), vehicle: steroid suspending solution) is given as 10 of 10; the survivor count (dose: 150.0 mg/kg/injection, schedule: Q01DX005 (sc), vehicle: steroid suspending solution) is listed as 10 of 10; the survivor count (dose: 200.0 mg/kg/injection, schedule: Q01DX005 (sc), vehicle: steroid suspending solution) is on record as 9 of 10.

On to `Oc1cccc[c]1[Hg][Cl]`, for which the survivor count by setting is: under setting [1], 0 of 10; under setting [2], 0 of 10; under setting [3], 0 of 10.

As for `Nc1cc[c]([Hg][Cl])cc1`, the survivor count (dose: 25.0 mg/kg/injection, schedule: Q01DX001 (ip), vehicle: saline) was 0 of 10; the survivor count (dose: 50.0 mg/kg/injection, schedule: Q01DX001 (ip), vehicle: saline) is 0 of 10; the survivor count under setting [1] is 0 of 10.

As to `COC(=O)C1(C)CCC(c2ccc(OC)cc2)C(CC(=O)O)C1=O` (centres undefined), for the setting “dose: 200.0 mg/kg/injection, schedule: Q04DX003 (ip), vehicle: Klucel (hydroxypropylcellulose) (HPC)”, the survivor count is on record as 9 of 10.

For the compound `CCOC(=O)c1ccc(NCC(C)(C)[N+](=O)[O-])cc1`, the survivor count under setting [2] was 10 of 10.

For the compound `O=C(Nc1cccc(Cl)c1)Oc1ccc2ccccc2c1`, the T/C under setting [4] was 132 % of control and the T/C under setting [5] was 130 % of control. For the same compound, the survivor count is, setting by setting: under setting [6], 10 of 10; under setting [7], 10 of 10.

Turning to `COc1cc(N)c2ncccc2c1SC`, the survivor count under setting [1] was 10 of 10.

As for `O=[N+]([O-])c1ccc(OCc2ccc(S(=O)(=O)F)c(Cl)c2)c(Cl)c1`, the survivor count (dose: 25.0 mg/kg/injection, schedule: Q01DX009 (ip), vehicle: Klucel (hydroxypropylcellulose) (HPC)) was 10 of 10 and the survivor count (dose: 50.0 mg/kg/injection, schedule: Q01DX009 (ip), vehicle: Klucel (hydroxypropylcellulose) (HPC)) is 10 of 10.

For `COc1cccc(CNc2cccc(Cl)c2Cl)c1OC`, under setting [8], the T/C is 126 % of control and the survivor count is given as 10 of 10.

Turning to `CCOc1ccc2nc(N)sc2c1`, where the note is “dose: 400.0 mg/kg/injection, schedule: Q01DX001 (ip), vehicle: Klucel (hydroxypropylcellulose) (HPC)”, the survivor count is recorded as 6 of 10.

For the compound `C[C@@H]1C[C@H]2[C@@H]3CCC4=CC(=O)C=C[C@]4(C)[C@@]3(F)[C@@H](O)C[C@]2(C)[C@@]1(O)C(=O)CO`, the T/C was 128 % of control (dose: 2.0 mg/kg/injection, schedule: Q01DX004 (sc), vehicle: saline) and 132 % of control (dose: 4.0 mg/kg/injection, schedule: Q01DX004 (sc), vehicle: saline). Further, the survivor count runs as follows: (dose: 4.5 mg/kg/injection, schedule: Q01DX004 (sc), vehicle: saline) 10 of 10; (dose: 6.7 mg/kg/injection, schedule: Q01DX004 (sc), vehicle: saline) 10 of 10; (dose: 10.0 mg/kg/injection, schedule: Q01DX004 (sc), vehicle: saline) 10 of 10; (dose: 20.0 mg/kg/injection, schedule: Q01DX004 (sc), vehicle: saline) 10 of 10; (dose: 40.0 mg/kg/injection, schedule: Q01DX004 (sc), vehicle: saline) 10 of 10.

As for `Cc1c2oc3c(C)ccc(C(=O)N[C@@H]4C(=O)N[C@H](C(C)C)C(=O)N5CCC[C@H]5C(=O)N(C)CC(=O)N(C)[C@@H](C(C)C)C(=O)O[C@H]4C)c3nc-2c(C(=O)N[C@@H]2C(=O)N[C@H](C(C)C)C(=O)N3CCC[C@H]3C(=O)N(C)CC(=O)N(C)[C@@H](C(C)C)C(=O)O[C@H]2C)c(N)c1=O` (I: [aThr][dV]P[Sar][NMeV] / II: [aThr][dV]P[Sar][NMeV]; ester I:1-I:C, II:1-II:C; linker I:N-II:N via Actinocin(9to1)), under “dose: 0.3 mg/kg/injection, schedule: Q01DX001 (ip), vehicle: saline”, the survivor count is 10 of 10. Further, the T/C (dose: 20.0 micrograms/kg/injection, schedule: Q01DX010 (ip), vehicle: saline) was 129 % of control.

For `COc1cc([C@@H]2c3cc4c(c(O)c3C[C@H]3COC(=O)[C@@H]32)OCO4)cc(OC)c1O`, the survivor count is reported as 10 of 10 (dose: 0.5 mg/kg/injection, schedule: Q01DX009 (ip), vehicle: Klucel (hydroxypropylcellulose) (HPC)) and 10 of 10 (dose: 1.0 mg/kg/injection, schedule: Q01DX009 (ip), vehicle: Klucel (hydroxypropylcellulose) (HPC)).

As for `NC(Cc1ccc([N+](=O)[O-])cc1)C(=O)O` (centres undefined), the survivor count under setting [3] is reported as 10 of 10.

Consider `OCC1=C(CO)C2(Cl)C(Cl)=C(Cl)C1(Cl)C2(Cl)Cl`, for which the survivor count (dose: 100.0 mg/kg/injection, schedule: Q01DX001 (ip), vehicle: Klucel (hydroxypropylcellulose) (HPC)) is reported as 10 of 10.

`N=c1ccn2c(n1)OC1C(O)C(CO)OC12` (centres undefined): the T/C reads like this: under setting [4], 102 [9 of 10 alive], 110, 134, 137 [8 of 10 alive], 138 [9 of 10 alive], 141 % of control [9 of 10 alive]; under setting [5], 113, 115, 118, 122, 128, 128 [9 of 10 alive], 131, 150 % of control; (dose: 75.0 mg/kg/injection, schedule: Q01DX009 (ip), vehicle: saline) 131 % of control; (dose: 100.0 mg/kg/injection, schedule: Q01DX009 (ip), vehicle: saline, evaluated on day 45) 128 % of control; (dose: 100.0 mg/kg/injection, schedule: Q01DX009 (ip), vehicle: saline, evaluated on day 60) 109 [8 of 10 alive], 126, 147, 163 (2×), 166 % of control; under setting [6], 87, 100, 105 [9 of 10 alive], 114 % of control. The T/C is 144 % of control (dose: 150.0 mg/kg/injection, schedule: Q01DX009 (ip), vehicle: saline); 143 % of control (dose: 200.0 mg/kg/injection, schedule: Q01DX009 (ip), vehicle: saline, evaluated on day 45); 103 [9 of 10 alive], 108 [8 of 10 alive], 109 [8 of 10 alive], 170 % of control (dose: 200.0 mg/kg/injection, schedule: Q01DX009 (ip), vehicle: saline, evaluated on day 60); 97, 100 (2×), 119, 131 % of control under setting [7]; 130 % of control (dose: 300.0 mg/kg/injection, schedule: Q04DX003 (ip), vehicle: saline); 117 % of control (dose: 400.0 mg/kg/injection, schedule: Q01DX001 (ip), vehicle: saline, evaluated on day 45). The T/C is 93, 102, 112, 118, 128, 161 % of control [9 of 10 alive] (dose: 400.0 mg/kg/injection, schedule: Q01DX001 (ip), vehicle: saline, evaluated on day 60); 86 [9 of 10 alive], 109 [9 of 10 alive], 122, 184 % of control under setting [9]; 113, 116, 118, 155, 156, 197 % of control (dose: 400.0 mg/kg/injection, schedule: Q04DX003 (ip), vehicle: saline); 104, 108, 118, 126, 132, 138 % of control (dose: 500.0 mg/kg/injection, schedule: Q01DX001 (ip), vehicle: saline); 125 and 143 % of control [9 of 10 alive] (dose: 500.0 mg/kg/injection, schedule: Q04DX003 (ip), vehicle: saline); 100, 105 [9 of 10 alive], 114, 123, 125, 133 % of control (dose: 600.0 mg/kg/injection, schedule: Q01DX001 (ip), vehicle: saline). Besides, the T/C under setting [10] was 125 % of control. In addition, the survivor count under setting [4] is 10 of 10; the survivor count (dose: 200.0 mg/kg/injection, schedule: Q01DX009 (ip), vehicle: saline) is listed as 10 of 10; the survivor count (dose: 300.0 mg/kg/injection, schedule: Q01DX009 (ip), vehicle: saline) was 10 of 10; the survivor count under setting [9] is 10 of 10; the survivor count under setting [10] is listed as 10 of 10.

As for `N=Cc1c(O)[nH]c(=O)[nH]c1=O`, the survivor count (dose: 400.0 mg/kg/injection, schedule: Q04DX003 (ip), vehicle: Klucel (hydroxypropylcellulose) (HPC)) is on record as 10 of 10.
